Among the data in article PMC4634911 are binding values, retold here.

Sequences of proteins named here, by UniProt entry; tags and fusion partners are left off.
UniProt A6NGQ2: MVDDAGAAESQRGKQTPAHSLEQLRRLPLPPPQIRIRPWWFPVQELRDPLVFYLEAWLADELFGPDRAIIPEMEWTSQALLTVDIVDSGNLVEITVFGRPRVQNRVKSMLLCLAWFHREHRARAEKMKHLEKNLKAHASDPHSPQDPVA

The target of assay [1] is T1, Flag-tagged TLE6, wild type (human) (UniProt Q9H808).
T1 sequence: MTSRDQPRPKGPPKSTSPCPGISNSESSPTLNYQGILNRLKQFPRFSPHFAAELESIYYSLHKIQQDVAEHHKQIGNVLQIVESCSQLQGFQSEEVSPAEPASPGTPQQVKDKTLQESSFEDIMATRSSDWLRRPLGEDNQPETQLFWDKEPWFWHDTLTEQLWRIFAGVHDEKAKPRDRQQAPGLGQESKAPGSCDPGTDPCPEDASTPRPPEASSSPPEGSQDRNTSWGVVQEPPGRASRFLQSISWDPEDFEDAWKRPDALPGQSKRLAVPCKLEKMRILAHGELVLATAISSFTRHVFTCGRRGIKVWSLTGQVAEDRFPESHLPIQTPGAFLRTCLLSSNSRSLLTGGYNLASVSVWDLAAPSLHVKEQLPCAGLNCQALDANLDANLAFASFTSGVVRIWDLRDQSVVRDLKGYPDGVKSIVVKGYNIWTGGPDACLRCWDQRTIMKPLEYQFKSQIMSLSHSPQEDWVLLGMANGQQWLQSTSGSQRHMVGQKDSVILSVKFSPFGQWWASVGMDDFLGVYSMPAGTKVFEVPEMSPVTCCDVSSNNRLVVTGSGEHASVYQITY
Kind of assay: co-IP; cells expressing Flag-tagged wild-type or S510Y TLE6; lysate on anti-Flag beads, 2 h at 4 °C, pull-down buffer 50 mM HEPES pH 7.5, 150 mM NaCl, 0.1 % Tween 20; immunoblot for OOEP and KDHC3L. (A western blot detects proteins with antibodies after separation by electrophoresis.)

Assay [2] addresses T2, Flag-tagged TLE6 S510Y (human) (UniProt Q9H808).
T2 sequence: T1 sequence with S510Y
The assay is described as above.

Assay [3] concerns the target OOEP, endogenous in lymphoblastoid cells (human (endogenous in lymphoblastoid cell lines)) (UniProt A6NGQ2). Nature of the assay: co-IP; endogenous proteins from control and patient lymphoblastoid cell extracts; precipitated with anti-OOEP or anti-KDHC3L/Ecat1 antibody (control IgG beside it) on Protein A dynabeads, 2 h at 4 °C, pull-down buffer 50 mM HEPES pH 7.5, 150 mM NaCl, 0.1 % Tween 20; immunoblot for TLE6.

Assay [4] deals with T3, KDHC3L/Ecat1 (KHDC3L), endogenous in lymphoblastoid cells (human (endogenous in lymphoblastoid cell lines)) (UniProt Q587J8).
T3 sequence: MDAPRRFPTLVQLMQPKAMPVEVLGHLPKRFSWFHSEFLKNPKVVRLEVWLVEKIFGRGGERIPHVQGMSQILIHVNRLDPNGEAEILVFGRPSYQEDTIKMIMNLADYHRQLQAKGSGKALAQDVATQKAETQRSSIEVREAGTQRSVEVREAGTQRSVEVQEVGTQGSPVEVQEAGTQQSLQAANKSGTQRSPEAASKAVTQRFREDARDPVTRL
Described as above.

Numbering of substitutions follows the chain as printed. Numbers in names are those of the source. Results are given in words; binding and its absence hold for the method and conditions named. Binding seen in cells or lysates may run through a third protein. Some results given as binding are weak or reduced against the parent protein; the word gives no strength. For part of these data: Where a sequence is shown, tags or fusion partners need not be part of it.

B1: KDHC3L (KHDC3L) in the cells transfected with Flag-TLE6 (protein, UniProt Q587J8 1-217)
chain: T3 sequence
For B1, the binding entry in assay [1] and in assay [2] was “binds” throughout.

B2: TLE6 (transducin-like enhancer of split 6), wild type, endogenous in control lymphoblastoid cells (protein, UniProt Q9H808-1 1-572)
chain: T1 sequence
Consider B2, for which the binding result in assay [3] and in assay [4] was “binds” throughout.

B3: TLE6 S510Y, endogenous in lymphoblastoid cells of patients homozygous for the mutation (protein, UniProt Q9H808-1 1-572)
chain: T1 sequence with S510Y
In the case of B3, the binding result in assay [3] and in assay [4] was “binds” throughout.
